The record followed here is PMC6440744.

Amino acid sequences for entries named in this document (tags omitted).
UniProt Q8TDM6: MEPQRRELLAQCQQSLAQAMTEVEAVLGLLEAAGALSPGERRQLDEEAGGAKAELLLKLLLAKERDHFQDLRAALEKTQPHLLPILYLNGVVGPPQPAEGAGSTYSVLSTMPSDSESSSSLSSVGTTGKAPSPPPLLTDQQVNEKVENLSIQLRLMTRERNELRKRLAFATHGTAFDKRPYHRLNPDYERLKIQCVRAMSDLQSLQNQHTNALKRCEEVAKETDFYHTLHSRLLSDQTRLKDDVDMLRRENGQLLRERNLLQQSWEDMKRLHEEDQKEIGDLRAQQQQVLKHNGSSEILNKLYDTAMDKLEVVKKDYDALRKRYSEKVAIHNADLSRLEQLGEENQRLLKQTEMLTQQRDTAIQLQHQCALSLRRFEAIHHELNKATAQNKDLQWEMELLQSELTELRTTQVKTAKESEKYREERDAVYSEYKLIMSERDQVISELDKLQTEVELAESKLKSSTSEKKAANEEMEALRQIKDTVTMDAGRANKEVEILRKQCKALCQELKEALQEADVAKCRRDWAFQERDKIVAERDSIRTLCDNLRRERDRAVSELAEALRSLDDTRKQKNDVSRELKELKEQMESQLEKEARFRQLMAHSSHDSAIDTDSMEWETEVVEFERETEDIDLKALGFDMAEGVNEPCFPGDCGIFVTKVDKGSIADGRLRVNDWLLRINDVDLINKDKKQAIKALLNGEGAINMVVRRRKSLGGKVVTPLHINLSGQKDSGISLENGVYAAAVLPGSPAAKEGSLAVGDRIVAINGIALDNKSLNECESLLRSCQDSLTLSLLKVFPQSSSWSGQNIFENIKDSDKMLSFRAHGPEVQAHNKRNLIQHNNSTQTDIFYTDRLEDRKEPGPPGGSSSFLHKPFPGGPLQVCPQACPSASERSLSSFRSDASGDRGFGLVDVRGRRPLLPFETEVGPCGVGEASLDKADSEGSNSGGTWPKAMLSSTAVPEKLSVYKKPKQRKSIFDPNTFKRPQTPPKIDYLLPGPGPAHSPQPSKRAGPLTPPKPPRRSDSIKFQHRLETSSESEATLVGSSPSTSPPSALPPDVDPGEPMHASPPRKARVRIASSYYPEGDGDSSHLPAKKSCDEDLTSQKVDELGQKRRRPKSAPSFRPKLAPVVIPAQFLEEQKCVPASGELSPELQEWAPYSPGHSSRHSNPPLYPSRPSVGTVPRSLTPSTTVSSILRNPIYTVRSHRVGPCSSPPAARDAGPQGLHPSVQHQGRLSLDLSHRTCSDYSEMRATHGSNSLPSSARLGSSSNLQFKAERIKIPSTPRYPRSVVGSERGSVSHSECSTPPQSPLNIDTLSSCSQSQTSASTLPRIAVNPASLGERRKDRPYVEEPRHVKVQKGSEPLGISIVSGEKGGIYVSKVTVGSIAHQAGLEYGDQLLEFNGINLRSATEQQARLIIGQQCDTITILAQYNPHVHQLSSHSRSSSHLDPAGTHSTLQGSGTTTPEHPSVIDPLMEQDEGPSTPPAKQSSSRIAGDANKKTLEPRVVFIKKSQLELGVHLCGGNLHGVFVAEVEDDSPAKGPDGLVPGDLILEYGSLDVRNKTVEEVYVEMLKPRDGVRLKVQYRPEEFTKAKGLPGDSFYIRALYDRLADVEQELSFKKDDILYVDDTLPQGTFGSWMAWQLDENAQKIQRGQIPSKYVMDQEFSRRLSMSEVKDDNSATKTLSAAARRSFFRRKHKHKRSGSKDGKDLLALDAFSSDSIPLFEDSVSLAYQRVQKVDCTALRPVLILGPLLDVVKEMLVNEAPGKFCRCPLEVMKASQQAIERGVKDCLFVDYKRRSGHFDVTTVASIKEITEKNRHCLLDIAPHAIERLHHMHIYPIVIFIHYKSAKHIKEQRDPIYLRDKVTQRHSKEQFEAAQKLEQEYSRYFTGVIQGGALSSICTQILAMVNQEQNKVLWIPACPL
UniProt Q8N4C8: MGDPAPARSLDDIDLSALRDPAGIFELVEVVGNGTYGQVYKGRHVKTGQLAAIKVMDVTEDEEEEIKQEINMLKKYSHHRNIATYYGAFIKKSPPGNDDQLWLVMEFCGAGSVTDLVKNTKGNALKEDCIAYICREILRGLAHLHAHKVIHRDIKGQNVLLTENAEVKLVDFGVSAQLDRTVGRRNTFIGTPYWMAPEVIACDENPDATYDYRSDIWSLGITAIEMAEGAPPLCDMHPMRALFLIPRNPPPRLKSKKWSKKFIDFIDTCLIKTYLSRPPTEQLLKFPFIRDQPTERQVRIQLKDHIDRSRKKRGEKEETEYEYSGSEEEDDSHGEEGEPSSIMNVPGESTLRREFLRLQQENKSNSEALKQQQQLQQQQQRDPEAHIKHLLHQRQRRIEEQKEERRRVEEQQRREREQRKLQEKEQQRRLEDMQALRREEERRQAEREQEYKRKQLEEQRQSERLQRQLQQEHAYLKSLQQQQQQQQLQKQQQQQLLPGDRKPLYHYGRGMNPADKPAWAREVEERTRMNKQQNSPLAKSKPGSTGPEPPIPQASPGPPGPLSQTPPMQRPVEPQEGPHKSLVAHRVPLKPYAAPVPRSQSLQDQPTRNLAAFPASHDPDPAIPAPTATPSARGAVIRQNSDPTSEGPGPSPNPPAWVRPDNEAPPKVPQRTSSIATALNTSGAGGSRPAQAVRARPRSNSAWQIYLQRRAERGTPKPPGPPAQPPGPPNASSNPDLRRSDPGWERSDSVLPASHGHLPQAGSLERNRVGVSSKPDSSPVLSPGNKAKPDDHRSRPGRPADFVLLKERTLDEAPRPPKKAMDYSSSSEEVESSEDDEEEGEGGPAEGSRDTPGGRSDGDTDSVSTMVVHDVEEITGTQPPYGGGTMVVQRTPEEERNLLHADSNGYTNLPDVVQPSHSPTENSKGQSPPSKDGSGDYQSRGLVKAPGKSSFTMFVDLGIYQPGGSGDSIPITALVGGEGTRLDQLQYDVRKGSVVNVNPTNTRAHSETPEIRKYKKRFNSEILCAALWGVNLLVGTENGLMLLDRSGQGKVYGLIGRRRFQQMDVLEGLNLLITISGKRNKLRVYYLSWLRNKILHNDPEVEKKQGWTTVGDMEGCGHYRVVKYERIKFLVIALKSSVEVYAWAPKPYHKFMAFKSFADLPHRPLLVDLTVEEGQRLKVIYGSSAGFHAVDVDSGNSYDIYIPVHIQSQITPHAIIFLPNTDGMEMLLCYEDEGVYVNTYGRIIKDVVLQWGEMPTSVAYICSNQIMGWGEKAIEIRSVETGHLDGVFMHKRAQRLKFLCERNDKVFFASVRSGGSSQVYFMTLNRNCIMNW
UniProt P49023: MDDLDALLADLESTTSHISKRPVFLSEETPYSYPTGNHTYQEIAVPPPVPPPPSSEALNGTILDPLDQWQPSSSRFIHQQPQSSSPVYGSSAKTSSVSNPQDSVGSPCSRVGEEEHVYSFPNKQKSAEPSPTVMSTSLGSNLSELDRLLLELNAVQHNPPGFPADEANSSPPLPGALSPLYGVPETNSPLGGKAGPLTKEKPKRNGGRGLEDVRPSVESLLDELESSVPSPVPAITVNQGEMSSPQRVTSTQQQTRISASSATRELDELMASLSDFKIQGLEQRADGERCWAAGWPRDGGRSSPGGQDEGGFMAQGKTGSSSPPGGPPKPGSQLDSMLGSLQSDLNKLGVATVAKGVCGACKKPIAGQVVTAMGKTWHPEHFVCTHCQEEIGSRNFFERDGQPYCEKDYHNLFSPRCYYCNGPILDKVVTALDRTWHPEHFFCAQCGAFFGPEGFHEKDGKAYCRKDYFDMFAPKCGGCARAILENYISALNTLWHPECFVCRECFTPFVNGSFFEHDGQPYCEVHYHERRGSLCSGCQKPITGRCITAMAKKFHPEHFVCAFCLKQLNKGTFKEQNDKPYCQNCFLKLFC
UniProt Q9UDY2: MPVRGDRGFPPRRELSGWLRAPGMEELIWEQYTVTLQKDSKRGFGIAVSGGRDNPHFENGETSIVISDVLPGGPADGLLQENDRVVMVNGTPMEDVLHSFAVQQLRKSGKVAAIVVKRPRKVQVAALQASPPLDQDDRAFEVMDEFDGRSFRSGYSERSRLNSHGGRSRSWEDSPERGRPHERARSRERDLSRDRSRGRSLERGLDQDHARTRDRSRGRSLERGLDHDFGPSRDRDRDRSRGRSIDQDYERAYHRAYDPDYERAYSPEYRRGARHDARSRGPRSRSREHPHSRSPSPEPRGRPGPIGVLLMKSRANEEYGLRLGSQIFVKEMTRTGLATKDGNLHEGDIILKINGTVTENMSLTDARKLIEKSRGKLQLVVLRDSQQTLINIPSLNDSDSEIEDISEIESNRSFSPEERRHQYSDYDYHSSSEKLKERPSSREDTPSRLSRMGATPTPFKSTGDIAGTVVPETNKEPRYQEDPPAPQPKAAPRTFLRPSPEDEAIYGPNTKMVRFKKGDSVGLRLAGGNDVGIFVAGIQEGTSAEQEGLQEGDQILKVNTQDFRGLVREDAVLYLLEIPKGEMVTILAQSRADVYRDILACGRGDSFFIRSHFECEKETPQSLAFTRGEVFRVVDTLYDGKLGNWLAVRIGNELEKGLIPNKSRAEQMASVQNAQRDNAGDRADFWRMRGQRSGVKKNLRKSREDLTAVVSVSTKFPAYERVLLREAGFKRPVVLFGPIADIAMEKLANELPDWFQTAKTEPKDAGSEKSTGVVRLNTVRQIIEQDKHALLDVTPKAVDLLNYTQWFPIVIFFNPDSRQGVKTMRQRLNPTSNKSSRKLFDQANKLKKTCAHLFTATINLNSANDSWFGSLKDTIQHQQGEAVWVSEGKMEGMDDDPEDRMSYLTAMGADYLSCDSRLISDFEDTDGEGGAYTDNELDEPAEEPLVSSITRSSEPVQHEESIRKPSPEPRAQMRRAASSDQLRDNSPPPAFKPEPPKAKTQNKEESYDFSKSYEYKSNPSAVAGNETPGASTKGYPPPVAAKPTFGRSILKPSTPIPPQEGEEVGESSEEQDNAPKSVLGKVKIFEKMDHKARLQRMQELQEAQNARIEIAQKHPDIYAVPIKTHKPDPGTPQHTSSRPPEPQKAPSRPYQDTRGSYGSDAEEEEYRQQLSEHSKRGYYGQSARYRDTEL
UniProt P35222: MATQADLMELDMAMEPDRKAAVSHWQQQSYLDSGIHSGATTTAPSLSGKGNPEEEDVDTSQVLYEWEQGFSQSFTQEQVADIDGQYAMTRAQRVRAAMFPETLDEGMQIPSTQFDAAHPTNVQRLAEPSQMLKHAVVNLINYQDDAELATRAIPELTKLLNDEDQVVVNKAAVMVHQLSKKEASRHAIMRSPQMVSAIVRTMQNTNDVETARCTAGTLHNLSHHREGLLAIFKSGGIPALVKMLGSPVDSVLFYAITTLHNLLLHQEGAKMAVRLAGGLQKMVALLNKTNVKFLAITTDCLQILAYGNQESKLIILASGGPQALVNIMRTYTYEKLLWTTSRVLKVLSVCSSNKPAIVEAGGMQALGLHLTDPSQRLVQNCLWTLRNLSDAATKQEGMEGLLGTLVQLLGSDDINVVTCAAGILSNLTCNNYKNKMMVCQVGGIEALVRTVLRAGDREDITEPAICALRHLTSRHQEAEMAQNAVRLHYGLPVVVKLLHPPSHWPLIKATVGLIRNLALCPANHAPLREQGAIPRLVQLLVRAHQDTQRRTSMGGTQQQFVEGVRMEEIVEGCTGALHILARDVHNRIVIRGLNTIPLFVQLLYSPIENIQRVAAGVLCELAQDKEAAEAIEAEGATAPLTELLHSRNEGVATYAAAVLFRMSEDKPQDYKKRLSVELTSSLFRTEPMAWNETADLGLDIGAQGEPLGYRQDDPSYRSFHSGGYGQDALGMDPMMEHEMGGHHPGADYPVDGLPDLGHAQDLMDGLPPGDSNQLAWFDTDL

Results are given in words; binding and its absence hold for the method and conditions named. Binding seen in cells or lysates may run through a third protein. These calls come from enrichment with a bait or labelling near it, and not all partners need be listed. A no says only that the protein was not detected with the bait. Sequences can lack the tags named with a protein.

The target in the test is T1, PTPRK-C1089S.BirA*-Flag (human) (UniProt Q15262).
T1 sequence: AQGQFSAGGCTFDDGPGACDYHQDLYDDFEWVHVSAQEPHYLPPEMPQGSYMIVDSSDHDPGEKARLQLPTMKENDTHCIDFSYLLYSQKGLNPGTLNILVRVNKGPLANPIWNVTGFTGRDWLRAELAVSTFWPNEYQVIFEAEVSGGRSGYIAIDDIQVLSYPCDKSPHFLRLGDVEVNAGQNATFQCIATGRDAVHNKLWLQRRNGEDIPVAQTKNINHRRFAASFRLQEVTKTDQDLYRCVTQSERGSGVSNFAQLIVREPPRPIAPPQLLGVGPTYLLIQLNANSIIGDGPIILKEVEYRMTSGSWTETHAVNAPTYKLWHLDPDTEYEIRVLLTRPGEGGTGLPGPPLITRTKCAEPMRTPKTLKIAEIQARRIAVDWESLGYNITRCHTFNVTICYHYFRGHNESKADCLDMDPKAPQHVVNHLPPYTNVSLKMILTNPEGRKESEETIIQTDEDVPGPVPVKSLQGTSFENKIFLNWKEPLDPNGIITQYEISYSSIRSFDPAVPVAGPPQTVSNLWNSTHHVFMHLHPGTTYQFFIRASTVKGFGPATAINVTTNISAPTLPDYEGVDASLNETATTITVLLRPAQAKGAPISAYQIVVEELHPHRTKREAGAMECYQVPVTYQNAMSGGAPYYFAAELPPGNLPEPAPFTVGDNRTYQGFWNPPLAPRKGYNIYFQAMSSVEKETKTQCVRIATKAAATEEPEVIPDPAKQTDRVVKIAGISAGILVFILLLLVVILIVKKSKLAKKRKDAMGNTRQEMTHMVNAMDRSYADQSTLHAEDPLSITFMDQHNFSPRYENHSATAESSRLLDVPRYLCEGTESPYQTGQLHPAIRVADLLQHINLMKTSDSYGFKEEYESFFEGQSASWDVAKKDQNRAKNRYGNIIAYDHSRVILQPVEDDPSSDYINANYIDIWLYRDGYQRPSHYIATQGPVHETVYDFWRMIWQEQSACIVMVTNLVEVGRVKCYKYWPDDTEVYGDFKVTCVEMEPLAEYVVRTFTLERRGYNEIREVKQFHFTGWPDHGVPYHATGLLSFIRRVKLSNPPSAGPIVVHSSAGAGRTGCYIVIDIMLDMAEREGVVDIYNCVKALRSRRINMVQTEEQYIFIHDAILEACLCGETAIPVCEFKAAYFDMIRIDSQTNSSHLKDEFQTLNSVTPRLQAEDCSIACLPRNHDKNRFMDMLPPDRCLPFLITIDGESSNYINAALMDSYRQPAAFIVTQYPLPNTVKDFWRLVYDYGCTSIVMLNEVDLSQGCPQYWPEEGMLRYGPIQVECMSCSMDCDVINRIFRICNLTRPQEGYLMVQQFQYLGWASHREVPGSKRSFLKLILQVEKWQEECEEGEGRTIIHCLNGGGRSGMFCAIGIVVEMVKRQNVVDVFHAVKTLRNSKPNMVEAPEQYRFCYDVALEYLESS
Briefly: proximity labelling; BioID in confluent MCF10A cells: doxycycline-induced PTPRK-C1089S.BirA*-Flag compared with PTPRK(1-785).BirA*-Flag and tGFP; 50 μM biotin for 24 hr; RIPA lysis, streptavidin agarose pull down, immunoblot. In general terms: In western blotting, separated proteins are transferred to a membrane and probed.

On to DLG5 (from UniProt Q8TDM6 1-1919), for which the binding result is “binds”. Turning to “E-Cadherin (human (endogenous in MCF10A))”, the binding result is recorded as “no binding”. Consider MINK1 (from UniProt Q8N4C8 1-1332), for which the binding result is given as “binds”.

Take Paxillin (from UniProt P49023 1-591): the binding result is given as “no binding”. As for Tubulin (human (endogenous in MCF10A)), the binding entry is given as “no binding”. Turning to ZO2 (from UniProt Q9UDY2 1-1190), the binding entry was “no binding”. Regarding β-Catenin (from UniProt P35222 1-781), the binding result was “no binding”.

B1: p120^Cat (protein, UniProt O60716 1-968)
chain: MDDSEVESTASILASVKEQEAQFEKLTRALEEERRHVSAQLERVRVSPQDANPLMANGTLTRRHQNGRFVGDADLERQKFSDLKLNGPQDHSHLLYSTIPRMQEPGQIVETYTEEDPEGAMSVVSVETSDDGTTRRTETTVKKVVKTVTTRTVQPVAMGPDGLPVDASSVSNNYIQTLGRDFRKNGNGGPGPYVGQAGTATLPRNFHYPPDGYSRHYEDGYPGGSDNYGSLSRVTRIEERYRPSMEGYRAPSRQDVYGPQPQVRVGGSSVDLHRFHPEPYGLEDDQRSMGYDDLDYGMMSDYGTARRTGTPSDPRRRLRSYEDMIGEEVPSDQYYWAPLAQHERGSLASLDSLRKGGPPPPNWRQPELPEVIAMLGFRLDAVKSNAAAYLQHLCYRNDKVKTDVRKLKGIPVLVGLLDHPKKEVHLGACGALKNISFGRDQDNKIAIKNCDGVPALVRLLRKARDMDLTEVITGTLWNLSSHDSIKMEIVDHALHALTDEVIIPHSGWEREPNEDCKPRHIEWESVLTNTAGCLRNVSSERSEARRKLRECDGLVDALIFIVQAEIGQKDSDSKLVENCVCLLRNLSYQVHREIPQAERYQEAAPNVANNTGPHAASCFGAKKGKDEWFSRGKKPIEDPANDTVDFPKRTSPARGYELLFQPEVVRIYISLLKESKTPAILEASAGAIQNLCAGRWTYGRYIRSALRQEKALSAIADLLTNEHERVVKAASGALRNLAVDARNKELIGKHAIPNLVKNLPGGQQNSSWNFSEDTVISILNTINEVIAENLEAAKKLRETQGIEKLVLINKSGNRSEKEVRAAALVLQTIWGYKELRKPLEKEGWKKSDFQVNLNNASRSQSSHSYDDSTLPLIDRNQKSDKKPDREEIQMSNMGSNTKSLDNNYSTPNERGDHNRTLDRSGDLGDMEPLKGTTPLMQDEGQESLEEELDVLVLDDEGGQVSYPSMQKI
As for B1, the binding entry is “binds”.

B2: PTPN14 (protein, UniProt Q15678 1-1187)
chain: MPFGLKLRRTRRYNVLSKNCFVTRIRLLDSNVIECTLSVESTGQECLEAVAQRLELRETHYFGLWFLSKSQQARWVELEKPLKKHLDKFANEPLLFFGVMFYVPNVSWLQQEATRYQYYLQVKKDVLEGRLRCTLDQVIRLAGLAVQADFGDYNQFDSQDFLREYVLFPMDLALEEAVLEELTQKVAQEHKAHSGILPAEAELMYINEVERLDGFGQEIFPVKDNHGNCVHLGIFFMGIFVRNRIGRQAVIYRWNDMGNITHNKSTILVELINKEETALFHTDDIENAKYISRLFATRHKFYKQNKICTEQSNSPPPIRRQPTWSRSSLPRQQPYILPPVHVQCGEHYSETHTSQDSIFHGNEEALYCNSHNSLDLNYLNGTVTNGSVCSVHSVNSLNCSQSFIQASPVSSNLSIPGSDIMRADYIPSHRHSAIIVPSYRPTPDYETVMRQMKRGILHTDSQSQSLRNLNIINTHAYNQPEDLVYSQPEMRERHPYTVPYGPQGVYSNKLVSPSDQRNPKNNVVPSKPGASAISHTVSTPELANMQLQGSHNYSTAHMLKNYLFRPPPPYPRPRPATSTPDLASHRHKYVSGSSPDLVTRKVQLSVKTFQEDSSPVVHQSLQEVSEPLTATKHHGTVNKRHSLEVMNSMVRGMEAMTLKSLHLPMARRNTLREQGPPEEGSGSHEVPQLPQYHHKKTFSDATMLIHSSESEEEEEEAPESVPQIPMLREKMEYSAQLQAALARIPNKPPPEYPGPRKSVSNGALRQDQASLPPAMARARVLRHGPAKAISMSRTDPPAVNGASLGPSISEPDLTSVKERVKKEPVKERPVSEMFSLEDSIIEREMMIRNLEKQKMAGLEAQKRPLMLAALNGLSVARVSGREENRVDATRVPMDERFRTLKKKLEEGMVFTEYEQIPKKKANGIFSTAALPENAERSRIREVVPYEENRVELIPTKENNTGYINASHIKVVVGGAEWHYIATQGPLPHTCHDFWQMVWEQGVNVIAMVTAEEEGGRTKSHRYWPKLGSKHSSATYGKFKVTTKFRTDSVCYATTGLKVKHLLSGQERTVWHLQYTDWPDHGCPEDVQGFLSYLEEIQSVRRHTNSMLEGTKNRHPPIVVHCSAGVGRTGVLILSELMIYCLEHNEKVEVPMMLRLLREQRMFMIQTIAQYKFVYQVLIQFLQNSRLI
Consider B2, for which the binding result is given as “binds”.

B3: ABLIM3 (protein, UniProt O94929 1-683)
chain: MNTSIPYQQNPYNPRGSSNVIQCYRCGDTCKGEVVRVHNNHFHIRCFTCQVCGCGLAQSGFFFKNQEYICTQDYQQLYGTRCDSCRDFITGEVISALGRTYHPKCFVCSLCRKPFPIGDKVTFSGKECVCQTCSQSMASSKPIKIRGPSHCAGCKEEIKHGQSLLALDKQWHVSCFKCQTCSVILTGEYISKDGVPYCESDYHAQFGIKCETCDRYISGRVLEAGGKHYHPTCARCVRCHQMFTEGEEMYLTGSEVWHPICKQAARAEKKLKHRRTSETSISPPGSSIGSPNRVICAKVDNEILNYKDLAALPKVKSIYEVQRPDLISYEPHSRYMSDEMLERCGYGESLGTLSPYSQDIYENLDLRQRRASSPGYIDSPTYSRQGMSPTFSRSPHHYYRSGPESGRSSPYHSQLDVRSSTPTSYQAPKHFHIPAGDSNIYRKPPIYKRHGDLSTATKSKTSEDISQTSKYSPIYSPDPYYASESEYWTYHGSPKVPRARRFSSGGEEDDFDRSMHKLQSGIGRLILKEEMKARSSSYADPWTPPRSSTSSREALHTAGYEMSLNGSPRSHYLADSDPLISKSASLPAYRRNGLHRTPSADLFHYDSMNAVNWGMREYKIYPYELLLVTTRGRNRLPKDVDRTRLERHLSQEEFYQVFGMTISEFDRLALWKRNELKKQARLF
As to B3, the binding entry is recorded as “binds”.

B4: PKP3 (protein, UniProt Q9Y446 1-797)
chain: MQDGNFLLSALQPEAGVCSLALPSDLQLDRRGAEGPEAERLRAARVQEQVRARLLQLGQQPRHNGAAEPEPEAETARGTSRGQYHTLQAGFSSRSQGLSGDKTSGFRPIAKPAYSPASWSSRSAVDLSCSRRLSSAHNGGSAFGAAGYGGAQPTPPMPTRPVSFHERGGVGSRADYDTLSLRSLRLGPGGLDDRYSLVSEQLEPAATSTYRAFAYERQASSSSSRAGGLDWPEATEVSPSRTIRAPAVRTLQRFQSSHRSRGVGGAVPGAVLEPVARAPSVRSLSLSLADSGHLPDVHGFNSYGSHRTLQRLSSGFDDIDLPSAVKYLMASDPNLQVLGAAYIQHKCYSDAAAKKQARSLQAVPRLVKLFNHANQEVQRHATGAMRNLIYDNADNKLALVEENGIFELLRTLREQDDELRKNVTGILWNLSSSDHLKDRLARDTLEQLTDLVLSPLSGAGGPPLIQQNASEAEIFYNATGFLRNLSSASQATRQKMRECHGLVDALVTSINHALDAGKCEDKSVENAVCVLRNLSYRLYDEMPPSALQRLEGRGRRDLAGAPPGEVVGCFTPQSRRLRELPLAADALTFAEVSKDPKGLEWLWSPQIVGLYNRLLQRCELNRHTTEAAAGALQNITAGDRRWAGVLSRLALEQERILNPLLDRVRTADHHQLRSLTGLIRNLSRNARNKDEMSTKVVSHLIEKLPGSVGEKSPPAEVLVNIIAVLNNLVVASPIAARDLLYFDGLRKLIFIKKKRDSPDSEKSSRAASSLLANLWQYNKLHRDFRAKGYRKEDFLGP
B4: the binding result was “binds”.
